From PubChem BioAssay AID493014 (National Center for Advancing Translational Sciences (NCATS), 2011)
Out of some 340,000 compounds screened, about 170 (0.05%) were called active. Inconclusive means that the source gave no clear call. Such entries were picked first, then a sample of the others. Calls follow the shape of the dose curve; as a rule, active = well fitted inhibition curve with a large enough effect in the signal ratio, with a control signal flat (not every such curve was filed as active); inconclusive = small, poorly fitted or top-dose-only effect, or effect the other way, or a change in a side signal; inactive = flat fitted curve, though single readings scatter; the % refers to the signal ratio. Where the call is inconclusive, the potency comes from a doubtful curve fit.

Assay: qHTS Assay to Find Inhibitors of Chronic Active B-Cell Receptor Signaling;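 as to activity change, negative = inhibition: plate controls were basal doxycycline-induced cells for no effect and cells given 10 µM MG132 for full effect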
Details: ABC-DLBCL IkBa-CBG/CBR reporter, luminescence ratio (green luciferase fused to IkBa over red control in TMD8 lymphoma cells), 4 h; activity change, negative = inhibition: at 46.1 µM (top of the series)
Method in brief: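 Cell line TMD8 (human ABC DLBCL), stably expressing tet-inducible CBG68-IkBa fusion and CBR; IMDM/0.5% FBS; cpd up to 46 uM; dox induction, 4 h, 37C/5% CO2; dual luminescence; green/red ratio; MG132 control.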
Potency is read from the fitted curve at half-maximal effect.

SMILES	Potency	activity change, negative = inhibition
CCOC(=O)Cn1nnnc1C(CC)N(Cc1ccccc1)Cc1cc2cc(C)ccc2[nH]c1=O (stereo not given)	inconclusive: 14.6 µM [falling, partial curve]	–
O=C(COC(=O)C1CC(=O)N(Cc2ccco2)C1)Nc1nc(-c2ccc(F)cc2)cs1 (stereo not given)	–	inactive: 8.35%
COc1ccc(Nc2c3c(c(C#N)c4nc5ccccc5n24)CCC3)cc1	inconclusive: 3.16 µM [falling, single point]	–
Cc1cc([N+](=O)[O-])nn1CCCC(=O)Nc1cc(Oc2ccc(F)cc2)cc([N+](=O)[O-])c1	–	inconclusive: 16.1%
COC(=O)C1=C(N)Oc2cc(C)[nH]c(=O)c2C1c1ccc(Cl)cc1 (stereo not given)	inconclusive: 11.2 µM [falling, partial curve]	–
CSc1ccc(C=NNc2ccc(S(=O)(=O)Nc3ccccc3C(=O)O)cc2[N+](=O)[O-])cc1	–	inconclusive: 5.86%
CCOC(=O)c1sc(=NC(=O)c2ccc(OC)c(OC)c2)n(C)c1C	–	inactive: 1.23%
CC(=O)NC1=NN(C(C)=O)C(C)(c2ccccc2)S1 (stereo not given)	–	inactive: 0.444%
COc1ccc(C(=O)Nc2cccc(OC(=O)c3ccco3)c2)cc1	inconclusive: 11.2 µM [falling, partial curve]	–
CCOC(=O)c1cc(-c2ccccc2)n(CCC(=O)NCCc2ccc(OC)c(OC)c2)c1C	inconclusive: 22.4 µM [falling, single point]	–
COC(=O)c1ccc2ccn(CC(=O)NC(C)C)c2c1	inconclusive: 0.184 µM [falling, full curve, poor fit]	–
Cc1cc[n+]2c3c(cccc13)CCC2	–	inconclusive: -13.7%
CCCn1c(-c2cccs2)nc2nc3ccccc3nc21	–	inactive: 7.06%
NC1=NC(=Nc2cccc(S(N)(=O)=O)c2)c2ccccc21	–	inactive: -8.92%
CN(C)CCCN(Cc1cc2cc3c(cc2[nH]c1=O)OCO3)C(=S)Nc1ccccc1	–	inactive: -5.51%
O=C(O)/C(=C\c1ccc(-c2ccc(F)cc2)o1)c1ccccc1	–	inconclusive: 1.23%
O=C(NC(=O)N1CCN(c2ccccc2F)CC1)c1ccccc1	–	inconclusive: 4.84%
COc1ccccc1NC(=O)CSc1nnnn1-c1ccccc1F	–	inconclusive: -25.1%
COc1ccc(-c2ccc(SCC(=O)c3cccs3)nn2)cc1OC	–	inactive: -7.34%
O=C(O)CCSc1ccc2ccccc2n1	inconclusive: 1.78 µM [rising, partial curve, poor fit]	inconclusive: 4.15%
O=C(Nc1nnc(SCc2ccccc2Cl)s1)C1COc2ccccc2O1 (stereo not given)	inconclusive: 0.0461 µM [rising, full curve]	–
O=C(O)c1cc(S(=O)(=O)N2CCN(S(=O)(=O)c3ccccc3)CC2)ccc1Cl	–	inactive: -0.948%
CCN(CC(=O)NCc1ccc(Cl)cc1)S(=O)(=O)c1ccc(F)cc1	–	inconclusive: -0.446%
C[N+]1=C(/C=C/Nc2ccccc2Cl)C(C)(C)c2ccccc21	–	inconclusive: -5.86%
CN(C)c1ccc(NC(=O)C(=O)C2C(=O)Nc3ccccc32)cc1 (stereo not given)	–	inconclusive: 0.745%
CC(Sc1nnnn1-c1ccc(O)cc1)c1nc2ccccc2c(=O)[nH]1 (stereo not given)	–	inactive: 4.78%
CC[n+]1c(/C=C/N(C)c2ccccc2)oc2ccc(Cl)cc21	inconclusive: 32.6 µM [falling, partial curve, poor fit]	–

One compound at a time, as listed above.
`COc1ccc(-c2ccc(SCC(=O)c3cccs3)nn2)cc1OC` is listed as activity change, negative = inhibition: inactive: -7.34%
`COC(=O)c1ccc2ccn(CC(=O)NC(C)C)c2c1` is listed as Potency: inconclusive: 0.184 µM [falling, full curve, poor fit]

(more compounds)

SMILES	Potency	activity change, negative = inhibition
Cc1ccccc1NC(=O)CSc1nnc(C)c2ccccc12	inconclusive: 25.1 µM [falling, partial curve]	–
CC(C)c1ccc(NC(=O)Cc2c(C(=O)O)n(C)c3ccccc23)cc1	–	inconclusive: -2.06%
COc1ccccc1NC(=O)CSc1nnc(-c2ccco2)n1N	inconclusive: 28.2 µM [falling, single point]	–
COC(C[C@@H]1O[C@@H]1C(=O)COCc1ccccc1)OC	–	inconclusive: 2.96%
C[C@H](NC(=O)c1nc[nH]c1C(=O)NCc1ccc(CNC(=O)OC(C)(C)C)cc1)C(=O)OC(C)(C)C	inconclusive: 0.631 µM [falling, full curve, poor fit]	–
CCN(c1cccc(C)c1)S(=O)(=O)c1cn(CC(=O)OC)c2ccc([N+](=O)[O-])cc12	–	inconclusive: -1.49%
O=C1OCCN1c1c(-c2ccccc2)c(-c2cccs2)nc2c(-c3ccccc3)cccc12	–	inconclusive: 12%
CCOC(=O)Cc1csc(NC(=O)c2ccc(S(=O)(=O)N(CCOC)CCOC)cc2)n1	inconclusive: 6.31 µM [falling, partial curve, poor fit]	–
COc1ccc(CC(NC(C)=O)C(=O)NC2CCN(C(=O)Nc3ccccc3Cl)CC2)cc1OC (stereo not given)	inconclusive: 16.4 µM [falling, single point]	–
O=C(N/N=C1\CCS(=O)(=O)c2ccc(F)cc21)c1ccc(O)cc1	inconclusive: 31.6 µM [falling, partial curve]	–
O=C(O)CCc1ccc(-c2ccc(Br)cc2)n1Cc1ccco1	–	inconclusive: -14.5%
O=C(COC(=O)c1cc(Br)ccc1O)NNC(=O)c1cccs1	inconclusive: 32.6 µM [falling, partial curve, poor fit]	–
Cn1cc(C(=O)c2ccc(Cl)cc2Cl)cc1C(=O)N/N=C(\N)COc1ccc(Cl)cc1	–	inconclusive: 10%
Cc1ccc(C2N=C(N)Nc3nc(=O)c4ccccc4n32)cc1 (stereo not given)	–	inconclusive: -3.52%
CN1CCC(=O)N([C@H](CSc2ccccc2)c2ccccc2)CC1	inconclusive: 35.5 µM [falling, single point]	–
C=CCn1c(=S)[nH]c2sc3c(c2c1=O)CCC3	–	inactive: 23.9%
CC(=O)c1c(C)nc(-c2ccc(Cl)cc2)nc1N	–	inconclusive: 0.617%
Cc1cc(NS(=O)(=O)c2ccc(NC(=O)COc3ccccc3C(C)(C)C)cc2)no1	–	inconclusive: -10.3%
COc1ccc(C(=O)Cc2ccc(OC)c(OC)c2)cc1	–	inactive: -2.84%
O=C(CSc1ccc([N+](=O)[O-])cc1)OCC(=O)N1CCCC1=O	–	inactive: -7.13%
O=C(CSc1nnc(SCc2cccc3ccccc23)s1)N/N=C/C=C/c1ccccc1[N+](=O)[O-]	inconclusive: 20.6 µM [falling, partial curve]	–
O=C(NCC(=O)N1CCN(c2ccc(C(F)(F)F)cn2)CC1)c1ccc(Br)o1	–	inconclusive: -1.38%
Nc1nnc(SCCN2C(=O)c3ccccc3S2(=O)=O)s1	–	inconclusive: 15.7%
O=C(N/N=C/C1C(c2ccccc2)C1(Cl)Cl)c1cccc(Br)c1 (stereo not given)	inconclusive: 11.2 µM [falling, partial curve]	–
COc1ccc(OC)c(NC(=O)COC(=O)c2cc3c(s2)CCC3)c1	–	inactive: -8.94%
COc1ccc2cnn(CCOc3cc(C)ccc3C(C)C)c(=O)c2c1OC	–	inactive: -6.29%
COCCNC(=O)c1cc2sccc2n1C	–	inconclusive: -0.0668%

SMILES	Potency	activity change, negative = inhibition
CCOC(=O)Cn1c(=O)oc2cc(S(=O)(=O)N(C)c3ccc(OC)cc3)ccc21	–	inconclusive: 8.41%
O=C(/C=C/c1ccccc1Cl)NC1CCCCC1	inconclusive: 4.47 µM [falling, full curve]	–
COc1ccc(C(=O)Nc2ccc([N+](=O)[O-])cn2)c(OC)c1	–	inconclusive: 6.67%
c1ccc2c(CN3CCSCC3)cccc2c1	–	inconclusive: 9.92%
O=C1/C(=C\c2ccccc2)SC(=S)N1CCC(=O)N1CCCCC1CCO (stereo not given)	–	inconclusive: 2.1%
Cc1cc(O)c(Sc2ncn[nH]2)cc1NS(=O)(=O)c1ccc(Cl)cc1	–	inactive: -7.7%
C=CCn1c(SC(C)C(=O)NCc2ccc3c(c2)OCO3)nc2scc(-c3ccccc3)c2c1=O (stereo not given)	–	inconclusive: 10.5%
O=C(CSc1nnc(-c2ccccn2)n1-c1ccc(Cl)cc1)Nc1ccc2c(c1)OCO2	–	inconclusive: 12.2%
O=C(C1CCCN(Cc2ccccc2Cl)C1)N1CCCCC1 (stereo not given)	–	inactive: -0.217%
N#CC1=C(N)Oc2cc(N)ccc2C1c1cccc(Br)c1 (stereo not given)	inconclusive: 2.82 µM [falling, full curve]	–
COc1ccc(CCNc2ncnc3c2oc2ccccc23)cc1OC	–	inconclusive: 0.0832%
CC(NCc1cccn1C)c1ccccc1 (stereo not given)	–	inconclusive: -0.472%
CN(C)C(=O)NC1c2ccccc2-c2ccccc21	–	inconclusive: -1.29%
Cc1ccc2c(c1)C(=O)C(=O)N2CC(=O)Nc1ccccc1NC(=O)c1ccccn1	–	inconclusive: -19.5%
CCN1CCN(c2nc(Nc3ccc(OC)cc3)nc(N)c2[N+](=O)[O-])CC1	–	inconclusive: -0.793%
CC1CN(C(=S)NC(=O)c2ccccc2)CC(C)O1 (stereo not given)	–	inconclusive: 7.39%
COc1ccccc1N1CCN(C(=O)c2cc3c(C)nc4ccccc4c3o2)CC1	–	inconclusive: -1.46%
O=C(/C=C/c1cccnc1)c1cccc(O)c1	inconclusive: 7.94 µM [falling, partial curve]	–
C=CCN1C(=Nc2ccccc2)SC/C1=C\C(=O)OC	–	inconclusive: -0.917%
FC(F)(F)c1nnc2c(Sc3ccccn3)nc3ccccc3n12	inconclusive: 7.08 µM [falling, partial curve]	–
CCc1noc(C)c1C(=O)OC(C)C(=O)Nc1ccc2c(c1)OCO2 (stereo not given)	–	inactive: 3.39%
O=C(c1sc2ccccc2c1Cl)N1CCN(c2ccccn2)CC1	–	inactive: -2.01%
Cc1ccc(S(=O)(=O)n2nc(OC(=O)c3c(-c4ccccc4Cl)noc3C)cc2N)cc1	inconclusive: 22.4 µM [falling, single point]	–
CCSc1nnc2n(-c3ccc(OC)cc3)c(=O)c3c4c(sc3n12)CCCC4	inconclusive: 23.1 µM [rising, partial curve, poor fit]	–
c1ccc(Nc2nc(NCC3CCCO3)c3ccccc3n2)cc1 (stereo not given)	–	inconclusive: -3.07%

3 compounds from above, ordered by heavy-atom count, ascending:
SMILES	Potency	activity change, negative = inhibition
CN(C)C(=O)NC1c2ccccc2-c2ccccc21	–	inconclusive: -1.29%
COc1ccc(CCNc2ncnc3c2oc2ccccc23)cc1OC	–	inconclusive: 0.0832%
C=CCn1c(SC(C)C(=O)NCc2ccc3c(c2)OCO3)nc2scc(-c3ccccc3)c2c1=O (stereo not given)	–	inconclusive: 10.5%
